{
  "sequences": {"note": "Protein sequences, listed by entry. Tags and fused reporters are not part of them. Lines headed by an entry give the natural chain unless they say otherwise; changes in a name come on top.", "UniProt P48023": "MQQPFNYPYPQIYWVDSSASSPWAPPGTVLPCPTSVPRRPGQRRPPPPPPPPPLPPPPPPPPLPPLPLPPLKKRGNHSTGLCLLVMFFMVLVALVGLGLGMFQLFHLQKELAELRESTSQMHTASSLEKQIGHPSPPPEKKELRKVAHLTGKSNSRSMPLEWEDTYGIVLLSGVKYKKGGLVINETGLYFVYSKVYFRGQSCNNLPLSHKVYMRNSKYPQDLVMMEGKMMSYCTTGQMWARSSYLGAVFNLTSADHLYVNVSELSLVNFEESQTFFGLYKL"},
  "source": "patent US20250002596A1",
  "about": "“NEUTRALIZING ANTI-CD95L MONOCLONAL ANTIBODIES” (INSTITUT NATIONAL DE LA SANTÉ ET DE LA RECHERCHE MÉDICALE, priority 2021, published 2025)",
  "binders": {"B1": {"name": "JQ3 neutralizing anti-CD95L monoclonal antibody (IgG1κ) (antibody, V domains shown)", "VH": "EIQLQQTGPELVKPGASVKISCKASGFSFTDYIMVWVKQSHGKILEWIGDISPYYGTATYNLKFKGKATLTVVKSSSTAYMQLNSLTSEDSAVYYCARAPNRYEVMDYWGQGTSVTVSS", "VL": "QIVFTQSPAIMSAFLGEEITLTCSASSSVSYMHWYQQKSGTSPKLLIYNTFNLASGVPSRFSGSGSGTFYSLTISSVEAEDAADYYCHQWSSYPTFGGGTKLEIK", "notes": "Mouse (Balb/c) hybridoma antibody, IgG1 kappa, purified on protein A; also called JQ3 mAb"}},
  "target": "Ig-CD95L (soluble and cytotoxic human CD95L) (human) (UniProt P48023)",
  "assay": "ELISA-type screen on IgCD95L immobilized in microtiter plates",
  "note": "No constants are given. Whether binding was seen depends on the method and setting. Some binding calls cover weakened binding; strength is not graded here.",
  "data": [
    {"binder": "B1", "values": [
      {"measurement": "binding", "value": "binds"}
    ]}
  ]
}
